No constants are given. Whether binding was seen depends on the method and setting. Binding seen in cells or lysates may run through a third protein. Some binding calls cover weakened binding; strength is not graded here.
Target: neuronal nitric oxide synthase (mouse (endogenous in dorsal hippocampus)) (UniProt Q9Z0J4)
Test: co-IP; nNOS antibody (mouse monoclonal A-11, 2.5 ug/ml) added to dorsal hippocampus lysates (low-salt buffer, protease inhibitors, 1 mM DTT, 0.5% Igepal CA-630), 2 h at 4 °C, protein-A resin; Western blot for nNOS, NOS1AP and PSD-95; mice injected with rAAV for mCherry (control), NOS1AP or NOS1AP_(396-503)

Sequences of proteins named here, by UniProt entry; tags and fusion partners are left off. A change or cut given only in a name is not applied to a line headed by its entry. Residues count along the entry.
UniProt Q9Z0J4: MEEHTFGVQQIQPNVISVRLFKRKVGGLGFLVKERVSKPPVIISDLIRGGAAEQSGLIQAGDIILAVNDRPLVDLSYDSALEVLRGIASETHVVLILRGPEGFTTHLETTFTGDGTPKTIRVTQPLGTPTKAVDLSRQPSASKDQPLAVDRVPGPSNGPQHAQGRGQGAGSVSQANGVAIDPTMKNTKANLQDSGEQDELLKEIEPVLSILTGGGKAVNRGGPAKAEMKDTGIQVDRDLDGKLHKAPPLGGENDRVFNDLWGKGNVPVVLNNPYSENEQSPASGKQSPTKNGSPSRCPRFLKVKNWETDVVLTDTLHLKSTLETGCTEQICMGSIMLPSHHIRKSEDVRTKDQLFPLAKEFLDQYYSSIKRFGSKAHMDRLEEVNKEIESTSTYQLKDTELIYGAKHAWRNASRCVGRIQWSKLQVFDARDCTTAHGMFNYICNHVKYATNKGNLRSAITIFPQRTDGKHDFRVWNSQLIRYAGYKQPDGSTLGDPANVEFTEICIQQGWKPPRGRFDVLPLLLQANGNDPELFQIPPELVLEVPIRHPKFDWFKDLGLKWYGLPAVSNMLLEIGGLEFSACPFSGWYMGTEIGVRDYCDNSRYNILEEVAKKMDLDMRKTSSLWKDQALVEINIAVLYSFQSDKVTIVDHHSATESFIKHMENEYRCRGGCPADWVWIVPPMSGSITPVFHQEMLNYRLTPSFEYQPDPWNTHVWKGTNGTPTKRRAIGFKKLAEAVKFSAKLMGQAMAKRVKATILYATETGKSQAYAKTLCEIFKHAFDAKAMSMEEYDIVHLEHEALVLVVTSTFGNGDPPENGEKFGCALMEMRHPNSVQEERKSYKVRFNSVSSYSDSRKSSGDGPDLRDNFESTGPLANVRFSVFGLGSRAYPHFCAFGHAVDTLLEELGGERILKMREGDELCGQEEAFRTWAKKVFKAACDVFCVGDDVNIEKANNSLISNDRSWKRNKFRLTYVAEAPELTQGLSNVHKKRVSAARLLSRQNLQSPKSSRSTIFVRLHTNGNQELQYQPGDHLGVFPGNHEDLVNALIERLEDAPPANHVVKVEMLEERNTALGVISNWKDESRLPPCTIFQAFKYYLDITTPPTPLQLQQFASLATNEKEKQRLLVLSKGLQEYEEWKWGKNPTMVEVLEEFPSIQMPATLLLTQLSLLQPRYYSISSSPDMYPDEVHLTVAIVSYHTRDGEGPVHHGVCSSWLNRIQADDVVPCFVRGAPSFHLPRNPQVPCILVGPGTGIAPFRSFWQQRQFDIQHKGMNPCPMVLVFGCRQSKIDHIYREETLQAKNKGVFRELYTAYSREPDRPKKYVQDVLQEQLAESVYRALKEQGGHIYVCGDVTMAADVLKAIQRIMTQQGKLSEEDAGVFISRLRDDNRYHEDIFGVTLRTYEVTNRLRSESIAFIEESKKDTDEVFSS
UniProt Q9D3A8: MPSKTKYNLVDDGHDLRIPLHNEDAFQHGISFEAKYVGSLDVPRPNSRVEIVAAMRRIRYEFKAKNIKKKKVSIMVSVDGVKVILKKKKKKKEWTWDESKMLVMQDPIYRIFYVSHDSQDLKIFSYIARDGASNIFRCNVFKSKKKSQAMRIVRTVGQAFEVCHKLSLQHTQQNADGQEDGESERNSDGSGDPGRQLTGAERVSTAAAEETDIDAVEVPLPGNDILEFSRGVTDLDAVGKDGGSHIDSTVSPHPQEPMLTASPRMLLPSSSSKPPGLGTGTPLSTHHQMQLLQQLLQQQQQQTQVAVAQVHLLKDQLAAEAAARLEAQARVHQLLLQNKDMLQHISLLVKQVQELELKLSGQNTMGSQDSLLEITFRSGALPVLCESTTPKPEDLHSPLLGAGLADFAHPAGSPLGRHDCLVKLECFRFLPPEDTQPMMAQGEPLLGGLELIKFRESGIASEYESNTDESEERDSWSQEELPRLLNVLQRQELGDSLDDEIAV
mCherry.3xFLAG.NOS1AP_(396-503) (virally overexpressed carboxyterminus of murine NOS1AP): residues 396-503 of Q9D3A8

endogenous nitric oxide synthase 1 adaptor protein (from UniProt Q9D3A8 1-503)
binding: binds

mCherry.3xFLAG.NOS1AP (virally overexpressed murine full-length NOS1AP) (from UniProt Q9D3A8-1 1-503)
binding: binds

mCherry.3xFLAG.NOS1AP_(396-503) (virally overexpressed carboxyterminus of murine NOS1AP) (from UniProt Q9D3A8-1 396-503) (domain or fragment)
binding: binds
